Assay results published in ChEMBL document CHEMBL5579863, “Galectin-8N-Selective 4-Halophenylphthalazinone-Galactals Double π-Stack in a Unique Pocket” (ACS Med Chem Lett, 2024).

Assay: in vitro
Conditions: PAMPA

Papp at 5 h, 100 µM [×10⁻⁶ cm/s] | SMILES
> 5 | O=c1c2ccccc2c(-c2ccc(F)cc2)nn1CO[C@@H]1C=CO[C@H](CO)[C@@H]1O
> 5 | O=c1c2ccccc2c(-c2ccc(Br)cc2)nn1CO[C@@H]1C=CO[C@H](CO)[C@@H]1O
